{
  "sequences": {"note": "Protein sequences, listed by entry. Tags and fused reporters are not part of them. Lines headed by an entry give the natural chain unless they say otherwise; changes in a name come on top.", "UniProt Q9H4G4": "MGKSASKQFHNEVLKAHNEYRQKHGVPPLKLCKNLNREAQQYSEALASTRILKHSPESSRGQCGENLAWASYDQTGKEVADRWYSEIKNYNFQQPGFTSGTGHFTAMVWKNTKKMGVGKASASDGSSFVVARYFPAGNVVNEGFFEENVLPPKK", "UniProt Q9BQQ3": "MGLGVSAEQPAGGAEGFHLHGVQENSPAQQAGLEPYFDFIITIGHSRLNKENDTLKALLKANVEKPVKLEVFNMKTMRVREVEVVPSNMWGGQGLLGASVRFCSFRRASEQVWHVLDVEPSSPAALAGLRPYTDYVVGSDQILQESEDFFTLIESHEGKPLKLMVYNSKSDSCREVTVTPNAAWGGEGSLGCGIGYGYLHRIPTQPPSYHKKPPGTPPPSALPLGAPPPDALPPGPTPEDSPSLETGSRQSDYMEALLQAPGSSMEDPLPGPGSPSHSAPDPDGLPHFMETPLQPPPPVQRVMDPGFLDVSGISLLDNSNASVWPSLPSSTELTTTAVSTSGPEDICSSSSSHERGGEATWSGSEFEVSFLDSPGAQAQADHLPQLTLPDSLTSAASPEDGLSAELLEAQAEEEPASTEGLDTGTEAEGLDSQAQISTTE", "UniProt Q9BVP2": "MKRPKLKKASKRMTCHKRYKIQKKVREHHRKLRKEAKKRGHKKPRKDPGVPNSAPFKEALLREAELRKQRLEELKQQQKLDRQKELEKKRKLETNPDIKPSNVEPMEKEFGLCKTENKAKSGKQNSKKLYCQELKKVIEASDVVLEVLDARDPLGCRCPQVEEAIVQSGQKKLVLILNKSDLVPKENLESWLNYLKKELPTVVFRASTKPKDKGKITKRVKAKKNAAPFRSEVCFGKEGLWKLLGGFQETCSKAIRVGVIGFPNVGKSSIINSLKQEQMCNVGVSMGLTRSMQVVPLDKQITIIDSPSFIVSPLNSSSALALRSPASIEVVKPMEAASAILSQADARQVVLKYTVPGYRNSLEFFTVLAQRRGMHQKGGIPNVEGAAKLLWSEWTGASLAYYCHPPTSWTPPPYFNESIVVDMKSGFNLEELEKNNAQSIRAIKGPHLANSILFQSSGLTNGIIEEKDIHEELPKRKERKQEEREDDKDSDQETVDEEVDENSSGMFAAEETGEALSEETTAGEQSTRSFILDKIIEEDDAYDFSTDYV", "UniProt Q9Y2X7": "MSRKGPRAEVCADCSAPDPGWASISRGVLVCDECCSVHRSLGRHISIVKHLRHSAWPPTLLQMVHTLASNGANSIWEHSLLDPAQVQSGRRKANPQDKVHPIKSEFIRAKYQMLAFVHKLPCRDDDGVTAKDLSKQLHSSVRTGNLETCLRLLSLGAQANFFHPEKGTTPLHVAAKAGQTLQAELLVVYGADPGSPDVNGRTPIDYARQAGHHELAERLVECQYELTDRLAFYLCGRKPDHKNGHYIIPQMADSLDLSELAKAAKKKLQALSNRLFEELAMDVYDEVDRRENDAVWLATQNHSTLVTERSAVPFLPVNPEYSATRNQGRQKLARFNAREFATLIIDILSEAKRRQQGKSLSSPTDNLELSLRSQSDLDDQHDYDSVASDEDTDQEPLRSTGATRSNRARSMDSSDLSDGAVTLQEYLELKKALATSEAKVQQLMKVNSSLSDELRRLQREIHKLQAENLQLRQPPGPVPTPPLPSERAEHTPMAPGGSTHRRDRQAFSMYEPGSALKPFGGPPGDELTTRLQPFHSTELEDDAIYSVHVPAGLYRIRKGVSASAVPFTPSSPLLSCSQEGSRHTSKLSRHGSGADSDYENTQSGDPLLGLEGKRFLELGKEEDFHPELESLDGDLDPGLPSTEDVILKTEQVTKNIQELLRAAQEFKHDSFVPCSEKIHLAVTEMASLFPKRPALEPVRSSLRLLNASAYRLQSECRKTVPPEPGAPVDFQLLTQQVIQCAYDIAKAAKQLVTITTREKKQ", "UniProt Q9HCL2": "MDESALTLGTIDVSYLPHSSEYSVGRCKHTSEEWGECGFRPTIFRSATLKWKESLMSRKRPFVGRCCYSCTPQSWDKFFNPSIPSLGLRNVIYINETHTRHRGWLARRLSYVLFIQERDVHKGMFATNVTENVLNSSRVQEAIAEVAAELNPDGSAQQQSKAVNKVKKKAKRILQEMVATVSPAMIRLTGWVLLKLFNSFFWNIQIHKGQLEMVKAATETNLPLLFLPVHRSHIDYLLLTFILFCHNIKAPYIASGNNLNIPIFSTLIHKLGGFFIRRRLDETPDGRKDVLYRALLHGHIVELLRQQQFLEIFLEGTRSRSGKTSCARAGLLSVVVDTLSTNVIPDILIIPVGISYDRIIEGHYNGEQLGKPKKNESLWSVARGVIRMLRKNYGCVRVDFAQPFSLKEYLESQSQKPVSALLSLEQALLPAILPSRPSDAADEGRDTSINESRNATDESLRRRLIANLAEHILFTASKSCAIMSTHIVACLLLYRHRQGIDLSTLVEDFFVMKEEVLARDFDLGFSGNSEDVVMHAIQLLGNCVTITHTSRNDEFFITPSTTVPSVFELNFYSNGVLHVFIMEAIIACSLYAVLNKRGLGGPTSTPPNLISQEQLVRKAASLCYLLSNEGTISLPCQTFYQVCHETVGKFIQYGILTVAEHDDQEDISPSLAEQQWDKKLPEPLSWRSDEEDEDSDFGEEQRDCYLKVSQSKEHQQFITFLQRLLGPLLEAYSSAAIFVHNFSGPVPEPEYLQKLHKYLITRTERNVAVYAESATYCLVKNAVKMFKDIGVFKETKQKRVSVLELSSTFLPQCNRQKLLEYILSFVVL", "UniProt P21695": "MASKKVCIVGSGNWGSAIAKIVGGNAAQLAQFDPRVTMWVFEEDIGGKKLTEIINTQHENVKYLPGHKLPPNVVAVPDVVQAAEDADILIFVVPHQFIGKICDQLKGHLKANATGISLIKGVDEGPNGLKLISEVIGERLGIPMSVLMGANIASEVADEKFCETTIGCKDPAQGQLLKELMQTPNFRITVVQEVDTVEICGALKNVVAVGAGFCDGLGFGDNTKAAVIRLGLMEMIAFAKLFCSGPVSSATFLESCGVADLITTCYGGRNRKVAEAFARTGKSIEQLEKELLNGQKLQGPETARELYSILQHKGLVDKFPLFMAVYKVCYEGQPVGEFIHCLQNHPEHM", "UniProt O94923": "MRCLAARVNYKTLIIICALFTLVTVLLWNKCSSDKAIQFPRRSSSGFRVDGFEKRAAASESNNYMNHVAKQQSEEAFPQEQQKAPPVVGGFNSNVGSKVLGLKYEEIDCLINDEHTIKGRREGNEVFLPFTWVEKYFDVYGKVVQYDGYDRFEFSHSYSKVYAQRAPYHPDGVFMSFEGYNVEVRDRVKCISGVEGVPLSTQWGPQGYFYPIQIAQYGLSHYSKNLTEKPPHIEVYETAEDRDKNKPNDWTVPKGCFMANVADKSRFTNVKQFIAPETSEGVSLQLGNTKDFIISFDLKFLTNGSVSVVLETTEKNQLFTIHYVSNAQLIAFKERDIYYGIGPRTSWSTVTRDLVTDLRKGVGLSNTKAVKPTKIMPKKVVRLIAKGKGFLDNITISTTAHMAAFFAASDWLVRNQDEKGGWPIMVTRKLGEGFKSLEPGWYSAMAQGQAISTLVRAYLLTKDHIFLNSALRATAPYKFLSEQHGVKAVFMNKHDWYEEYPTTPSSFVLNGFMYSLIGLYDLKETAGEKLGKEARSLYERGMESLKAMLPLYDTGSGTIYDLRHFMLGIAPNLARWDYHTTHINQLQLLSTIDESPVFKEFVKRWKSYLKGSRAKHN", "UniProt P28799": "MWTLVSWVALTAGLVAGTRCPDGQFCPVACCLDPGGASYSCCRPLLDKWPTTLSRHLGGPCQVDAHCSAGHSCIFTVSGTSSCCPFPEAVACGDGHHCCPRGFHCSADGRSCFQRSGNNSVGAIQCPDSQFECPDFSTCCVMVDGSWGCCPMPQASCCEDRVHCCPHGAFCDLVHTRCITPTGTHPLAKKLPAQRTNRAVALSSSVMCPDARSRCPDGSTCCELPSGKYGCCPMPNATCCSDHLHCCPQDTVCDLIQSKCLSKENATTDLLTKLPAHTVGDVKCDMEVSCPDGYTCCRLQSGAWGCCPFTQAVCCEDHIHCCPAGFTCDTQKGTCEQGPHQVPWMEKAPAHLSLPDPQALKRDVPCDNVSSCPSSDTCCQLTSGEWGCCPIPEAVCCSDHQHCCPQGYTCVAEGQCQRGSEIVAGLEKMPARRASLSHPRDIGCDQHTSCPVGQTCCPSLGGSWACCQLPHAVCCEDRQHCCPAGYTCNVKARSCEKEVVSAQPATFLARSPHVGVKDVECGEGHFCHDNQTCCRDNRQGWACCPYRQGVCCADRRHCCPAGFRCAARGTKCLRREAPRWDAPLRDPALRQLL", "UniProt Q14161": "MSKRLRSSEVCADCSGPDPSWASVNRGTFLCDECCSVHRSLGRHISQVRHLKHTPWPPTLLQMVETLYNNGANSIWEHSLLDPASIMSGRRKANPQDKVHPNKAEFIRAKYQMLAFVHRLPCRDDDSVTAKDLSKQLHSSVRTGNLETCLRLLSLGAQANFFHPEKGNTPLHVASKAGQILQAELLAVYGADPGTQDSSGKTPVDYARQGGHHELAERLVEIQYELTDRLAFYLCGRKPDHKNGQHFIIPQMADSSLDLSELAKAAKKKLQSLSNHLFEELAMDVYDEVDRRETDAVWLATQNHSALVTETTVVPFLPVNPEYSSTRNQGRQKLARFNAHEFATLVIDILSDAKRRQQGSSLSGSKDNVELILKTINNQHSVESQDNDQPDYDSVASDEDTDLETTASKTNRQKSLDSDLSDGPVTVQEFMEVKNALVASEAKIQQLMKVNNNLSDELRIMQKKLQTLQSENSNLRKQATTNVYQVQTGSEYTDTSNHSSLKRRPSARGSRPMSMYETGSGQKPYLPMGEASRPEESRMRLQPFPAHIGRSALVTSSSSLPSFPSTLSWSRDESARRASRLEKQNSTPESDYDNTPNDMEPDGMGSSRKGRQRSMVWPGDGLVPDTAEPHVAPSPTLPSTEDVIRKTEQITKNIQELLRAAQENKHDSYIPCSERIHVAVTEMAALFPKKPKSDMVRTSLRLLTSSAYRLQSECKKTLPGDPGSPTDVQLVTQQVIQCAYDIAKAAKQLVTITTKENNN", "UniProt Q9UJJ9": "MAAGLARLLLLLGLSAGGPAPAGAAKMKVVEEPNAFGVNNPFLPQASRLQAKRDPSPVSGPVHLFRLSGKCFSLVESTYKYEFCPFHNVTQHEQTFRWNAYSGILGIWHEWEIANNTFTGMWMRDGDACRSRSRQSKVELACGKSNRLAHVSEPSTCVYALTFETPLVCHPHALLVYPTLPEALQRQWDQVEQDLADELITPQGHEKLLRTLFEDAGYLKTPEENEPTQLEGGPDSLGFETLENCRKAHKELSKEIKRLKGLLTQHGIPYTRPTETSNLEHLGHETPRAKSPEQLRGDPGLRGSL", "UniProt Q9P107": "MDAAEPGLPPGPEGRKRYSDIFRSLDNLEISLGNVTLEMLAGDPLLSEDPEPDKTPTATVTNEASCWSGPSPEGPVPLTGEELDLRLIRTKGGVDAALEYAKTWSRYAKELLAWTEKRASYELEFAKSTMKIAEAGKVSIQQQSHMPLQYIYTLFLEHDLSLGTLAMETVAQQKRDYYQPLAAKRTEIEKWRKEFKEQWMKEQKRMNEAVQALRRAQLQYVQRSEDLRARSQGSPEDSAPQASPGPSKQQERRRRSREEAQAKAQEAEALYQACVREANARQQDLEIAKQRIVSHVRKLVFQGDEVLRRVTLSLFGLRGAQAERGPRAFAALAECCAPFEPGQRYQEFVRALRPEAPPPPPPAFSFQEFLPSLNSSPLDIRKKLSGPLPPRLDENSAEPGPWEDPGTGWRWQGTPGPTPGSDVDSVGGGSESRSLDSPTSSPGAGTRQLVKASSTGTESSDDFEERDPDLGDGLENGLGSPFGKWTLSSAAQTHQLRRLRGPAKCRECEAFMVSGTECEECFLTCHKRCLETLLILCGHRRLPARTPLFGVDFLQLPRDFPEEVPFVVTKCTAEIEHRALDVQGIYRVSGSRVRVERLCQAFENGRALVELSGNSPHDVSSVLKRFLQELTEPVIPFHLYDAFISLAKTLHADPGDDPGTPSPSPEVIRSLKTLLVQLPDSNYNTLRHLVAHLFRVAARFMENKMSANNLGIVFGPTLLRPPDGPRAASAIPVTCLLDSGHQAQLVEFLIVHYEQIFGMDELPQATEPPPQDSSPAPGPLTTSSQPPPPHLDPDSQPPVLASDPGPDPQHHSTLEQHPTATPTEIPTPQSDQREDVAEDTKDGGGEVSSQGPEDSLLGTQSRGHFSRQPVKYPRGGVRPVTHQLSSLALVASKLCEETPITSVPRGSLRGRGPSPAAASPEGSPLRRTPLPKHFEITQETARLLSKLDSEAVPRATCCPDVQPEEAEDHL"},
  "source": "the supplement of paper PMC10849652",
  "note": "Some of the results follow.",
  "data": [
    {"compound": "CC[C@@H]1C(=O)N(C)c2cnc(Nc3ccc(C(=O)NC4CCN(C)CC4)cc3OC)nc2N1C1CCCC1", "test": "log2 fold change, soluble protein after heating vs DMSO (PISA); higher = thermal stabilisation; K562 cells, 10 uM, 30 min; active = over 0.2 and 3.5 SD of the protein, either way, in both replicates (recomputed)", "outline": "(§1)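 K562 cells (2×10^6 cells/mL) were treated with 10 μM compound for 30 min, and aliquots were heated for 3 min over 48°C-58°C. Pooled aliquots were extracted in PBS with 0.5% NP-40 at 4°C, and the supernatant after 21,000xg for 90 min was measured by TMTpro 16plex LC-MS/MS with channel sums equalised. Reported thermal stability, relative to control samples and from duplicates, is a log2 fold change.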", "values": [
      {"target": "GLIPR2 (UniProt Q9H4G4)", "log2 fold change": "inactive: -0.047"},
      {"target": "GPAA1 (UniProt E9PLG8)", "log2 fold change": "inactive: -0.056"},
      {"target": "GORASP1 (UniProt Q9BQQ3)", "log2 fold change": "inactive: 0.133"},
      {"target": "GPNMB (UniProt Q14956)", "log2 fold change": "inactive: 0.206"},
      {"target": "GOLGA8R (UniProt I6L899)", "log2 fold change": "inactive: -0.036"},
      {"target": "GNL3 (UniProt Q9BVP2)", "log2 fold change": "inactive: 0.018"},
      {"target": "GPS1 (UniProt A8K070)", "log2 fold change": "inactive: 0.098"},
      {"target": "GIT1 isoform 3 (UniProt Q9Y2X7)", "log2 fold change": "inactive: -0.27"},
      {"target": "GOLIM4 (UniProt F8W785)", "log2 fold change": "inactive: -0.208"},
      {"target": "GLT8D1 (UniProt Q68CQ7)", "log2 fold change": "inactive: -0.201"},
      {"target": "GNL2 (UniProt Q13823)", "log2 fold change": "inactive: 0.263"},
      {"target": "GOSR1 (UniProt E9PCW1)", "log2 fold change": "inactive: -0.171"},
      {"target": "GSDME (UniProt O60443)", "log2 fold change": "inactive: -0.137"},
      {"target": "GPCPD1 (UniProt Q9NPB8)", "log2 fold change": "inactive: -0.049"}
    ]},
    {"compound": "CC[C@@H]1C(=O)N(C)c2cnc(Nc3ccc(C(=O)N[C@H]4CC[C@H](N5CCN(CC6CC6)CC5)CC4)cc3OC)nc2N1C(C)C [volasertib]", "test": "log2 fold change, soluble protein after heating vs DMSO (PISA); higher = thermal stabilisation; K562 cells, 10 uM, 30 min; active = over 0.2 and 3.5 SD of the protein, either way, in both replicates (recomputed)", "outline": "as §1", "values": [
      {"target": "GPAM (UniProt Q9HCL2)", "log2 fold change": "inactive: -0.006"},
      {"target": "GPR180 (UniProt Q86V85)", "log2 fold change": "inactive: -0.124"},
      {"target": "GPD1 (UniProt P21695)", "log2 fold change": "inactive: -0.161"},
      {"target": "GLIPR2 (UniProt Q9H4G4)", "log2 fold change": "inactive: 0.163"},
      {"target": "GLCE (UniProt O94923)", "log2 fold change": "inactive: -0.179"},
      {"target": "GRN (UniProt P28799)", "log2 fold change": "inactive: 0.179"},
      {"target": "GPT2 (UniProt Q8TD30)", "log2 fold change": "inactive: -0.009"},
      {"target": "GORASP1 (UniProt Q9BQQ3)", "log2 fold change": "inactive: -0.287"},
      {"target": "GOLGA8R (UniProt I6L899)", "log2 fold change": "inactive: -0.4"},
      {"target": "GK5 (UniProt Q6ZS86)", "log2 fold change": "inactive: -0.138"},
      {"target": "GIT1 isoform 3 (UniProt Q9Y2X7)", "log2 fold change": "inactive: -0.241"},
      {"target": "GIGYF1 (UniProt O75420)", "log2 fold change": "inactive: -0.057"},
      {"target": "GOLGA1 (UniProt Q92805)", "log2 fold change": "inactive: 0.044"},
      {"target": "GIT2 (UniProt Q14161)", "log2 fold change": "inactive: -0.525"},
      {"target": "GOSR1 (UniProt E9PCW1)", "log2 fold change": "inactive: -0.019"},
      {"target": "GPCPD1 (UniProt Q9NPB8)", "log2 fold change": "inactive: -0.164"},
      {"target": "GOPC (UniProt Q9HD26)", "log2 fold change": "inactive: -0.015"}
    ]},
    {"compound": "CC[C@H](C)N1C=C(C2=C(C=C(C=C21)C3=CN=C(C=C3)N4CCNCC4)C(=O)NCC5=C(C=C(NC5=O)C)C)C", "test": "log2 fold change, soluble protein after heating vs DMSO (PISA); higher = thermal stabilisation; K562 cells, 10 uM, 30 min; active = over 0.2 and 3.5 SD of the protein, either way, in both replicates (recomputed)", "outline": "as §1", "values": [
      {"target": "GPAM (UniProt Q9HCL2)", "log2 fold change": "inactive: 0.043"},
      {"target": "GPD1 (UniProt P21695)", "log2 fold change": "inactive: 0"},
      {"target": "GNPTG (UniProt Q9UJJ9)", "log2 fold change": "inactive: 0.055"},
      {"target": "GLCE (UniProt O94923)", "log2 fold change": "inactive: 0.015"},
      {"target": "GPAA1 (UniProt E9PLG8)", "log2 fold change": "inactive: -0.025"},
      {"target": "GRN (UniProt P28799)", "log2 fold change": "inactive: 0.05"},
      {"target": "GNL3 (UniProt Q9BVP2)", "log2 fold change": "inactive: -0.197"},
      {"target": "GPS1 (UniProt A8K070)", "log2 fold change": "inactive: 0.001"},
      {"target": "GOLGA6B (UniProt A6NDN3)", "log2 fold change": "active: -0.579"},
      {"target": "GMIP (UniProt Q9P107)", "log2 fold change": "inactive: 0.172"},
      {"target": "GOLIM4 (UniProt F8W785)", "log2 fold change": "inactive: 0.028"},
      {"target": "GIT2 (UniProt Q14161)", "log2 fold change": "inactive: -0.346"},
      {"target": "GLT8D1 (UniProt Q68CQ7)", "log2 fold change": "inactive: 0.001"},
      {"target": "GSE1 (UniProt Q14687)", "log2 fold change": "inactive: -0.003"},
      {"target": "GOPC (UniProt Q9HD26)", "log2 fold change": "inactive: 0.022"}
    ]},
    {"compound": "CC[C@H](C)[C@@H](C(=O)N[C@@H]([C@@H](C)O)C(=O)N[C@@H](CC(C)C)C(=O)[C@]1(CO1)C)NC(=O)[C@H]([C@@H](C)CC)N(C)C(=O)C [epoxomicin]", "test": "log2 fold change, soluble protein after heating vs DMSO (PISA); higher = thermal stabilisation; K562 cells, 10 uM, 30 min; active = over 0.2 and 3.5 SD of the protein, either way, in both replicates (recomputed)", "outline": "as §1", "values": [
      {"target": "GPAM (UniProt Q9HCL2)", "log2 fold change": "inactive: -0.021"},
      {"target": "GPR180 (UniProt Q86V85)", "log2 fold change": "inactive: -0.09"},
      {"target": "GPD1 (UniProt P21695)", "log2 fold change": "inactive: -0.205"},
      {"target": "GLIPR2 (UniProt Q9H4G4)", "log2 fold change": "inactive: -0.088"},
      {"target": "GOLPH3L (UniProt Q9H4A5)", "log2 fold change": "inactive: -0.362"},
      {"target": "GNPTG (UniProt Q9UJJ9)", "log2 fold change": "inactive: -0.073"},
      {"target": "GRN (UniProt P28799)", "log2 fold change": "inactive: -0.034"},
      {"target": "GORASP1 (UniProt Q9BQQ3)", "log2 fold change": "inactive: 0.008"},
      {"target": "GPNMB (UniProt Q14956)", "log2 fold change": "inactive: -0.191"},
      {"target": "GK5 (UniProt Q6ZS86)", "log2 fold change": "inactive: 0.032"},
      {"target": "GNL3 (UniProt Q9BVP2)", "log2 fold change": "inactive: -0.06"},
      {"target": "GIT1 isoform 3 (UniProt Q9Y2X7)", "log2 fold change": "inactive: 0.04"},
      {"target": "GOLGA6B (UniProt A6NDN3)", "log2 fold change": "inactive: -0.061"},
      {"target": "GIGYF1 (UniProt O75420)", "log2 fold change": "inactive: 0.009"},
      {"target": "GMIP (UniProt Q9P107)", "log2 fold change": "inactive: 0.066"},
      {"target": "GOLIM4 (UniProt F8W785)", "log2 fold change": "inactive: 0.027"},
      {"target": "GIT2 (UniProt Q14161)", "log2 fold change": "inactive: -0.241"},
      {"target": "GNL2 (UniProt Q13823)", "log2 fold change": "inactive: -0.234"},
      {"target": "GREB1 (UniProt Q4ZG55)", "log2 fold change": "inactive: -0.081"},
      {"target": "GSDME (UniProt O60443)", "log2 fold change": "inactive: -0.174"},
      {"target": "GPCPD1 (UniProt Q9NPB8)", "log2 fold change": "inactive: 0.159"},
      {"target": "GOPC (UniProt Q9HD26)", "log2 fold change": "inactive: -0.053"},
      {"target": "GRAMD1A (UniProt Q96CP6)", "log2 fold change": "inactive: -0.139"}
    ]},
    {"compound": "CCn1c(C(=O)N(C2CC2)C2CC2)cc2c3c(ncn3C)c(Nc3cc(C)n(C)n3)nc21", "test": "log2 fold change, soluble protein after heating vs DMSO (PISA); higher = thermal stabilisation; K562 cells, 10 uM, 30 min; active = over 0.2 and 3.5 SD of the protein, either way, in both replicates (recomputed)", "outline": "as §1", "values": [
      {"target": "GPAM (UniProt Q9HCL2)", "log2 fold change": "inactive: -0.142"},
      {"target": "GNPTG (UniProt Q9UJJ9)", "log2 fold change": "inactive: -0.013"},
      {"target": "GLCE (UniProt O94923)", "log2 fold change": "inactive: 0.009"},
      {"target": "GRN (UniProt P28799)", "log2 fold change": "inactive: -0.041"},
      {"target": "GPS1 (UniProt A8K070)", "log2 fold change": "inactive: -0.037"},
      {"target": "GPATCH2L (UniProt Q9NWQ4)", "log2 fold change": "inactive: -0.135"},
      {"target": "GOLGA1 (UniProt Q92805)", "log2 fold change": "inactive: -0.011"},
      {"target": "GMIP (UniProt Q9P107)", "log2 fold change": "inactive: -0.084"},
      {"target": "GIT2 (UniProt Q14161)", "log2 fold change": "inactive: -0.146"},
      {"target": "GP6 isoform 3 (UniProt Q9HCN6)", "log2 fold change": "inactive: 0.047"},
      {"target": "GOSR1 (UniProt E9PCW1)", "log2 fold change": "inactive: -0.146"},
      {"target": "GSDME (UniProt O60443)", "log2 fold change": "inactive: -0.079"}
    ]}
  ]
}
